According to PubChem BioAssay AID2417 (National Center for Advancing Translational Sciences (NCATS), 2010):
Screen size: about 140,000 compounds; about 4,300 (3.1%) were called active. This list was built around the results that the source calls inconclusive (neither active nor inactive); the mix of calls is not that of the screen.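 Rule for the calls: active = readout at or below -70, meaning at least 70% loss of cells showing the perinucleolar compartment, a nuclear body marking cancer cells; inconclusive = readout between -30 and a set limit; inactive = the rest.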

Experiment: High Content Assay for Compounds that inhibit the Assembly of the Perinucleolar Compartment;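 note: plate controls were DMSO wells for no effect and camptothecin positive control wells for full effect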
Settings: PC3M PTB-GFP, PNC prevalence imaging, 16 h; at 10 µM; hits give low values
Method in brief: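 Read-out is percentage of cells bearing a perinucleolar compartment, from automated 20x imaging of fixed, Hoechst-stained PC3M PTB-GFP cells. Cells were seeded 4 h, then exposed 16 h to compound (23 nl of library stock) in duplicate plates.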

Row | SMILES | activity change (PNC), negative = inhibition
1 | Cc1cc(NC(=O)c2ccccc2Oc2ccccc2)no1 | inactive: 31.4%
2 | COc1ccc(NC(=O)C(=O)NCc2ccncc2)c(OC)c1 | inactive: -14%
3 | CC(=O)Nc1sc(/C(C#N)=C/c2ccc(Cl)c(Cl)c2)nc1-c1ccc(C)cc1 | inconclusive: -50.9%
4 | O=S(=O)(NCC(c1cccnc1)N1CCN(c2ccccc2)CC1)c1cccs1 (stereo unspecified) | inconclusive: -68.3%
5 | CCn1c(/C=C2\C(=O)N(C)c3ccccc32)nc2ccccc2c1=O | inconclusive: -37.3%
6 | CNC(=O)/C=C/c1cccc(C(F)(F)F)c1 | inconclusive: -57.4%
7 | O=C(Cn1[nH]c(=O)c2ccccc2c1=O)Nc1ccc2c(c1)CCC2 | inconclusive: -38.6%
8 | CN1CCN(CC(=O)Nc2sc3c(c2C#N)CCC(C(C)(C)C)C3)CC1 (stereo unspecified) | active: -86.5%
9 | Nc1c(-c2ccccc2)cnn1C1CCS(=O)(=O)C1 (stereo unspecified) | inactive: -11.6%
10 | Cc1oc(C(C)(C)C)cc1C(=O)N1CCCC1C(=O)O (stereo unspecified) | inconclusive: -40%
11 | Cc1nnc(NC2=NCCCCC2)o1 | inconclusive: -50.6%
12 | CCOC(=O)CNC(=O)c1cc(-c2ccc3c(c2)OCCO3)oc1C | inconclusive: -53.7%
13 | Cc1ccc(N(Cc2cc(=O)[nH]c3ccccc23)C(=O)c2ccco2)cc1 | inconclusive: -37.3%
14 | O=C(NC(=S)NC1CCCCCCCCCCC1)c1cccnc1 | inconclusive: -37.3%
15 | CCN(CC)S(=O)(=O)c1ccc(-c2nnc(SCC(=O)Nc3cc(OC)cc(OC)c3)o2)cc1 | inactive: -19.7%
16 | Cc1cccc(CN2C(=O)N/C(=C/c3ccc(C)s3)C2=O)c1 | inconclusive: -70.5%
17 | COc1ccc(CNC(=O)CN(Cc2ccccc2)C(=O)c2csnn2)cc1 | inconclusive: -36.5%
18 | COc1ccc(-c2nnnn2CCc2ccccc2)cc1 | inconclusive: -39.4%
19 | COc1ccc(NC(=O)CSc2nc(NS(=O)(=O)c3ccccc3)cc(=O)[nH]2)cc1 | inconclusive: -46.5%
20 | CC(C(=O)N1CCOCC1)(c1ccccc1)c1ccccc1 | inconclusive: -38.1%
21 | CSc1nc2c(c(=O)n1Cc1ccccc1)SC(C)C2 (stereo unspecified) | inconclusive: -78.7%
22 | CC(=O)c1cccc(NC(=S)NC(=O)c2cccc(C)c2)c1 | inactive: -0.577%
23 | CC1C(c2ccccc2)N(C)C(c2ccccc2)CC1(O)c1ccccc1 (stereo unspecified) | inconclusive: -43.7%

Row | SMILES | activity change (PNC), negative = inhibition
24 | CCCOC(=O)c1c(N)sc(C(=O)OCC)c1C | inactive: -14%
25 | Cc1cccc(C(=O)c2c[nH]cc2-c2ccccc2)c1 | inconclusive: -62.8%
26 | c1ccc(Cc2nnc(-c3ccccc3)o2)cc1 | inconclusive: -30.1%
27 | Clc1ccc(-c2nc(N3CCCCC3)nc3ccccc23)cc1 | active: -100%
28 | O=C(NCCc1cn2ccsc2n1)C1CCCCC1 | inactive: 12.8%
29 | O=C1NC2(CCCCCC2)C(=O)N1Cc1ccc([N+](=O)[O-])cc1 | inconclusive: -57.6%
30 | CCc1c(C)nc2cc(-c3ccc(OC)c(OC)c3)nn2c1NCC1CC1 | inconclusive: -68.1%
31 | CCOC(=O)c1ccc(CNC(=O)C(Cc2c[nH]c3ccccc23)NC(C)=O)o1 (stereo unspecified) | inconclusive: -45.1%
32 | O=C(CSc1nc(C2CC2)nc2ccccc12)N1CCc2ccccc2C1 | inactive: 15.3%
33 | O=C(N1CCCC1)C12CCC3CC(CC(C3)C1)C2 | inconclusive: -49.9%
34 | CC(=O)NCC(=O)N(Cc1ccco1)C1(C(=O)NC2CCCCC2)CCCCC1 | inconclusive: -49.5%
35 | CCC(C)(C)n1nnnc1C(c1ccccc1)N1CCc2ccccc2C1 (stereo unspecified) | inconclusive: -49.8%
36 | COc1ccc(/C=N/OCC(=O)NCc2cccs2)c(OC)c1 | inconclusive: -48.6%
37 | CN1CCN(CC(=O)Nc2ccc(OCc3ccccc3)cc2)CC1 | inconclusive: -31.6%
38 | COc1ccc(-c2[nH]nc3c2C(c2ccncc2)C(C#N)=C(N)O3)cc1 (stereo unspecified) | inconclusive: -39.8%
39 | Cc1ccc(C)c(CSc2nnc(-c3cccnc3)n2N)c1 | inconclusive: -40.5%
40 | CCN(CC)CCSc1nc(O)c(-c2ccccc2)c(=O)[nH]1 | inconclusive: -42.7%
41 | CCCCSc1nc2c(c(=O)[nH]1)CCC2 | inactive: 35.4%
42 | Cc1cccc2c1N(CCOc1ccc(C(C)(C)C)cc1)C(=O)C2=O | inactive: -16.9%
43 | CC1(C)CC(=O)C2=C(C1)OC(N)=C(C#N)C2Cc1ccccc1 (stereo unspecified) | inconclusive: -51.9%
44 | CCCCOC(=O)c1ccc(NC(=O)c2nn(C)cc2Br)cc1 | inconclusive: -58.3%
45 | N#CCN1CCN(CC(=O)Nc2cccc3ccccc23)CC1 | inactive: -11.7%
46 | Cc1ccc(Cl)cc1N1CCN(C(CC(C)C)c2nnnn2CC2CCCO2)CC1 (stereo unspecified) | inconclusive: -32.1%

Reprinted at random: two records from the list
Row | SMILES | activity change (PNC), negative = inhibition
23 | CC1C(c2ccccc2)N(C)C(c2ccccc2)CC1(O)c1ccccc1 (stereo unspecified) | inconclusive: -43.7%
31 | CCOC(=O)c1ccc(CNC(=O)C(Cc2c[nH]c3ccccc23)NC(C)=O)o1 (stereo unspecified) | inconclusive: -45.1%
